Measured values as given in paper PMC7029851, “Antibacterial activity of novel dual bacterial DNA type II topoisomerase inhibitors” (PLoS ONE, 2020).

System: S. aureus ATCC BAA-1720 mutants
Assay: Characterization of resistant mutants (sequencing, growth rate)
Format: cell-based, Staphylococcus aureus
Details: for Reduction of bacterial growth rate of resistant mutant (fitness cost): S. aureus ATCC BAA-1720 mutant vs wild type; for Point mutation in resistant mutant: S. aureus ATCC BAA-1720 mutant with highest MIC increase, gyrA, gyrB, grlA, grlB sequenced

| Compound | Reduction of bacterial growth rate of resistant mutant (fitness cost) [%] | Point mutation in resistant mutant |
| --- | --- | --- |
| O=C1COc2ncc(F)cc2N1[C@H]1CC[C@H](NCc2cc3c(=O)oc4ccc(F)cc4c3[nH]2)CC1 [Compound 1, 8-fluoro-2-({[trans-4-(7-fluoro-2-oxo-2,3-dihydro-1H-pyrido[2,3-b][1,4]oxazin-1-yl)cyclohexyl]amino}methyl)[1]benzopyrano[4,3-b]pyrrol-4(1H)-one] | 55 | point mutation in gyrB resulting in the replacement of a proline at amino acid position 456 by leucine |
| Cl.N#Cc1ccc2ccc(=O)n([C@H]3CC[C@H](NCc4cc5c(=O)oc6ccc(F)cc6c5[nH]4)CC3)c2c1 [Compound 2, 1-(trans-4-{[(8-fluoro-4-oxo-1,4-dihydro[1]benzopyrano[4,3-b]pyrrol-2-yl)methyl]amino}cyclohexyl)-2-oxo-1,2-dihydroquinoline-7-carbonitrile hydrochloride] | 30 | position 44 in gyrA subunit, outside of the QRDR, causing a proline to be replaced with a leucine residue |
